According to US20220049021A1:
These are yes or no findings as the source states them, for the method shown. Sequences can lack the tags named with a protein.

Sequences of proteins named here, by UniProt entry; tags and fusion partners are left off. A change or cut given only in a name is not applied to a line headed by its entry. A line that says so, or that is headed by a name, gives the form on record, which may keep a tag or linker. Residues count along the entry.
UniProt P12314, residues 16-288: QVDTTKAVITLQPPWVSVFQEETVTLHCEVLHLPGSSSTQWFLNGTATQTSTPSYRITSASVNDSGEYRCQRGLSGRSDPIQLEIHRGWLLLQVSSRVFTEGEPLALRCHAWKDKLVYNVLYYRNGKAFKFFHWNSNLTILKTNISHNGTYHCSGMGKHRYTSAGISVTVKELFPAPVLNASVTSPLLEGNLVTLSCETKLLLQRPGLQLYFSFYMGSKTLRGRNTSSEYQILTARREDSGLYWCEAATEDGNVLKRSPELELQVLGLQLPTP
biotinylated FcγRIIIa (Val176 variant) protein (Sino Biological) (P08637, form named): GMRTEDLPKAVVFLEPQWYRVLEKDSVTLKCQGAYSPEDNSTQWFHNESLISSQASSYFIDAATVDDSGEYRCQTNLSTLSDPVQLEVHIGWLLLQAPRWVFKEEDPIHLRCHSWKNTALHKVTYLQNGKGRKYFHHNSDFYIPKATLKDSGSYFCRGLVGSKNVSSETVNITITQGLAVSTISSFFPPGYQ

Key:
[1] = biological target: biotinylated FcγRI protein (Sino Biological) (human) (UniProt P12314); test: AlphaScreen competition with human IgG acceptor beads for biotinylated FcγRI
[2] = biological target: biotinylated FcγRIIIa (Val176 variant) protein (Sino Biological) (human) (UniProt P08637); test: AlphaScreen competition with human IgG acceptor beads for biotinylated FcγRIIIa (Val176 variant)

B1: human FLT3-ligand (Δ5 amino acid) human IgG4 (S228P/F234A/L235A/M252Y/S254T/T256E) fusion protein (SEQ ID NO:14) (Fc fusion)
chain: TQDCSFQHSPISSDFAVKIRELSDYLLQDYPVTVASNLQDEELCGGLWRLVLAQRWMERLKTVAGSKMQGLLERVNTEIHFVTKCAFQPPPSCLRFVQTNISRLLQETSEQLVALKPWITRQNFSRCLELQCQPDSSTLPPPWSPRPLEATAESKYGPPCPPCPAPEAAGGPSVFLFPPKPKDTLYITREPEVTCVVVDVSQEDPEVQFNWYVDGVEVHNAKTKPREEQFNSTYRVVSVLTVLHQDWLNGKEYKCKVSNKGLPSSIEKTISKAKGQPREPQVYTLPPSQEEMTKNQVSLTCLVKGFYPSDIAVEWESNGQPENNYKTTPPVLDSDGSFFLYSRLTVDKSRWQEGNVFSCSVMHEALHNHYTQKSLSLSLGK
binding [1]: no binding (tested: 294 nM (top of the titration)) | binding [2]: no binding (tested: 1176 nM (top of the titration))
